Experiments:
C3H/He mouse = test: Gastric emptying test of mouse (in vivo); conditions: IC50 (mg/kg) / ED50 (mg/kg)
Experimental: C3H/He mouse (manufactured by Japan SLC Co., male) fasted for 21 to 24 hours but allowed free access to water, was used as an experimental animal. A desired concentration of the test sample was suspended in 0.5% methyl cellulose solution. The weight of the mouse was measured, and the test compound solution was orally administered at a dosage of 10 mL/kg while only 0.5% methyl cellulose solution was administered to the reference group. One group contained 5 mice. A 1.5% methyl cellulose solution containing 0.05% phenol, red was used as a test meal solution. The test compound was administered, and 0.2 ml of the test meal was orally administered at 60 minutes thereafter. […] A 10% trichloroacetic acid solution (0.5 mL) was added to 5 mL of the supernatant, which was further centrifuged to remove proteins. A solution prepared by adding 125 μL of 2 N NaOH to the supernatant (1 mL) obtained by centrifugation was measured with a spectrophotometer (550 nm), and inhibition of transfer from the stomach to the small intestine was expressed by IC50 (mg/kg).

[1] = tested on: rabbit gastric gland cells; test: Action on gastric acid secretion ability (in vitro), 14C-aminopyrine uptake in gastric gland cells; type: cell-based; conditions: EC50 of gastric acid secretion ability / IC50 of suppression of TNF-α production
Experimental: Gastric acid secretion ability (as an index of the side effect) was tested according to the methods by BergLindh and Obrink (Acta Physiol. Scand. 97:401-414, 1976) and Sack and Speney (Am. J. Physiol. 243:G313-G319, 1982).
Gastric gland cells were prepared by collagenase treatment using male rabbit (Japanese white strain, manufactured by Oriental Yeast Co.).
The test compound, ^14C-aminopyrine (1.0 nmol/mL; 0.1 μCi/nmol) and histamine (0.3 to 1.0 μM) were incubated for a given time period, and gastric gland cell pellets obtained after centrifugation and washing were lysed with 100 μL of 1N-KOH. The lysate was filled in a scintillation vial containing a scintillation cocktail (manufactured by Perkin Elmer Co.) to measure the radioactivity. The gastric acid secretion action by the test compound was calculated as EC50, and the ratio of the activity relative to IC50 of suppression of TNF-α production described in Test Example 2 (degree of dissociation A) was determined from the following equation. The larger degree of dissociation A is more preferable. The results in Table 10 represent that secretion of the gastric acid ability(EC50) was lower activity in the compound of the invention, salts thereof or prodrugs thereof as compared with the suppression effect of TNF-α production(IC50). Ex. No. in Table 10 denotes the example No.
Degree of dissociation A=EC50 of gastric acid secretion ability/IC50 of suppression of TNF-α production

SMILES	gastric emptying IC50 times higher compared with suppression of TNF-α production ED50 (C3H/He mouse)	Degree of dissociation A [1]
C=CCc1c(CC)nc(-c2ccsc2)nc1Nc1ccc2cc(C(=O)O)ccc2c1 [Example 17]	4.7 times	71
CCc1nc(-c2ccsc2)nc(Nc2ccc(C(=O)O)cc2)c1CC [Example 57]		11
CCc1nc(-c2ccsc2)nc(Nc2ccc(CC(=O)O)cc2)c1CC [Example 58]		2
CCc1nc(-c2ccsc2)nc(Nc2ccc3cc(C(=O)O)ccc3c2)c1CC [Example 59]		3
CCc1c(C)nc(-c2ccc(SC)s2)nc1Nc1ccc(CC(=O)O)cc1 [Example 78]		225
CCc1nc(-c2cccs2)nc(Nc2ccc(C(=O)O)cc2)c1CC [Example 83]		4
CCc1nc(-c2cccs2)nc(Nc2ccc(CC(=O)O)cc2)c1CC [Example 84]		3
CCc1c(C)nc(-c2ccc(Br)s2)nc1Nc1ccc(CC(=O)O)cc1 [Example 148]	7.1 times	15

Source: patent publication US20060293343A1, “Pyrimidine derivatives” (Asahi Kasei Pharma Corporation, priority 2005, published 2006)
